These are yes or no findings as the source states them, for the method shown. Binding seen in cells or lysates may run through a third protein. Some entries that bind do so weakly or less than the wild type.
Experiments:
[1] = molecular target: DNA-dependent protein kinase catalytic subunit (mouse (endogenous in C2C7)) (UniProt P97313); experiment: co-IP
[2] = molecular target: Akt1 (mouse (endogenous in C2C7)) (UniProt P31750); experiment: co-IP

The chains behind the UniProt entries cited, without tags or fusion partners.
UniProt P97313: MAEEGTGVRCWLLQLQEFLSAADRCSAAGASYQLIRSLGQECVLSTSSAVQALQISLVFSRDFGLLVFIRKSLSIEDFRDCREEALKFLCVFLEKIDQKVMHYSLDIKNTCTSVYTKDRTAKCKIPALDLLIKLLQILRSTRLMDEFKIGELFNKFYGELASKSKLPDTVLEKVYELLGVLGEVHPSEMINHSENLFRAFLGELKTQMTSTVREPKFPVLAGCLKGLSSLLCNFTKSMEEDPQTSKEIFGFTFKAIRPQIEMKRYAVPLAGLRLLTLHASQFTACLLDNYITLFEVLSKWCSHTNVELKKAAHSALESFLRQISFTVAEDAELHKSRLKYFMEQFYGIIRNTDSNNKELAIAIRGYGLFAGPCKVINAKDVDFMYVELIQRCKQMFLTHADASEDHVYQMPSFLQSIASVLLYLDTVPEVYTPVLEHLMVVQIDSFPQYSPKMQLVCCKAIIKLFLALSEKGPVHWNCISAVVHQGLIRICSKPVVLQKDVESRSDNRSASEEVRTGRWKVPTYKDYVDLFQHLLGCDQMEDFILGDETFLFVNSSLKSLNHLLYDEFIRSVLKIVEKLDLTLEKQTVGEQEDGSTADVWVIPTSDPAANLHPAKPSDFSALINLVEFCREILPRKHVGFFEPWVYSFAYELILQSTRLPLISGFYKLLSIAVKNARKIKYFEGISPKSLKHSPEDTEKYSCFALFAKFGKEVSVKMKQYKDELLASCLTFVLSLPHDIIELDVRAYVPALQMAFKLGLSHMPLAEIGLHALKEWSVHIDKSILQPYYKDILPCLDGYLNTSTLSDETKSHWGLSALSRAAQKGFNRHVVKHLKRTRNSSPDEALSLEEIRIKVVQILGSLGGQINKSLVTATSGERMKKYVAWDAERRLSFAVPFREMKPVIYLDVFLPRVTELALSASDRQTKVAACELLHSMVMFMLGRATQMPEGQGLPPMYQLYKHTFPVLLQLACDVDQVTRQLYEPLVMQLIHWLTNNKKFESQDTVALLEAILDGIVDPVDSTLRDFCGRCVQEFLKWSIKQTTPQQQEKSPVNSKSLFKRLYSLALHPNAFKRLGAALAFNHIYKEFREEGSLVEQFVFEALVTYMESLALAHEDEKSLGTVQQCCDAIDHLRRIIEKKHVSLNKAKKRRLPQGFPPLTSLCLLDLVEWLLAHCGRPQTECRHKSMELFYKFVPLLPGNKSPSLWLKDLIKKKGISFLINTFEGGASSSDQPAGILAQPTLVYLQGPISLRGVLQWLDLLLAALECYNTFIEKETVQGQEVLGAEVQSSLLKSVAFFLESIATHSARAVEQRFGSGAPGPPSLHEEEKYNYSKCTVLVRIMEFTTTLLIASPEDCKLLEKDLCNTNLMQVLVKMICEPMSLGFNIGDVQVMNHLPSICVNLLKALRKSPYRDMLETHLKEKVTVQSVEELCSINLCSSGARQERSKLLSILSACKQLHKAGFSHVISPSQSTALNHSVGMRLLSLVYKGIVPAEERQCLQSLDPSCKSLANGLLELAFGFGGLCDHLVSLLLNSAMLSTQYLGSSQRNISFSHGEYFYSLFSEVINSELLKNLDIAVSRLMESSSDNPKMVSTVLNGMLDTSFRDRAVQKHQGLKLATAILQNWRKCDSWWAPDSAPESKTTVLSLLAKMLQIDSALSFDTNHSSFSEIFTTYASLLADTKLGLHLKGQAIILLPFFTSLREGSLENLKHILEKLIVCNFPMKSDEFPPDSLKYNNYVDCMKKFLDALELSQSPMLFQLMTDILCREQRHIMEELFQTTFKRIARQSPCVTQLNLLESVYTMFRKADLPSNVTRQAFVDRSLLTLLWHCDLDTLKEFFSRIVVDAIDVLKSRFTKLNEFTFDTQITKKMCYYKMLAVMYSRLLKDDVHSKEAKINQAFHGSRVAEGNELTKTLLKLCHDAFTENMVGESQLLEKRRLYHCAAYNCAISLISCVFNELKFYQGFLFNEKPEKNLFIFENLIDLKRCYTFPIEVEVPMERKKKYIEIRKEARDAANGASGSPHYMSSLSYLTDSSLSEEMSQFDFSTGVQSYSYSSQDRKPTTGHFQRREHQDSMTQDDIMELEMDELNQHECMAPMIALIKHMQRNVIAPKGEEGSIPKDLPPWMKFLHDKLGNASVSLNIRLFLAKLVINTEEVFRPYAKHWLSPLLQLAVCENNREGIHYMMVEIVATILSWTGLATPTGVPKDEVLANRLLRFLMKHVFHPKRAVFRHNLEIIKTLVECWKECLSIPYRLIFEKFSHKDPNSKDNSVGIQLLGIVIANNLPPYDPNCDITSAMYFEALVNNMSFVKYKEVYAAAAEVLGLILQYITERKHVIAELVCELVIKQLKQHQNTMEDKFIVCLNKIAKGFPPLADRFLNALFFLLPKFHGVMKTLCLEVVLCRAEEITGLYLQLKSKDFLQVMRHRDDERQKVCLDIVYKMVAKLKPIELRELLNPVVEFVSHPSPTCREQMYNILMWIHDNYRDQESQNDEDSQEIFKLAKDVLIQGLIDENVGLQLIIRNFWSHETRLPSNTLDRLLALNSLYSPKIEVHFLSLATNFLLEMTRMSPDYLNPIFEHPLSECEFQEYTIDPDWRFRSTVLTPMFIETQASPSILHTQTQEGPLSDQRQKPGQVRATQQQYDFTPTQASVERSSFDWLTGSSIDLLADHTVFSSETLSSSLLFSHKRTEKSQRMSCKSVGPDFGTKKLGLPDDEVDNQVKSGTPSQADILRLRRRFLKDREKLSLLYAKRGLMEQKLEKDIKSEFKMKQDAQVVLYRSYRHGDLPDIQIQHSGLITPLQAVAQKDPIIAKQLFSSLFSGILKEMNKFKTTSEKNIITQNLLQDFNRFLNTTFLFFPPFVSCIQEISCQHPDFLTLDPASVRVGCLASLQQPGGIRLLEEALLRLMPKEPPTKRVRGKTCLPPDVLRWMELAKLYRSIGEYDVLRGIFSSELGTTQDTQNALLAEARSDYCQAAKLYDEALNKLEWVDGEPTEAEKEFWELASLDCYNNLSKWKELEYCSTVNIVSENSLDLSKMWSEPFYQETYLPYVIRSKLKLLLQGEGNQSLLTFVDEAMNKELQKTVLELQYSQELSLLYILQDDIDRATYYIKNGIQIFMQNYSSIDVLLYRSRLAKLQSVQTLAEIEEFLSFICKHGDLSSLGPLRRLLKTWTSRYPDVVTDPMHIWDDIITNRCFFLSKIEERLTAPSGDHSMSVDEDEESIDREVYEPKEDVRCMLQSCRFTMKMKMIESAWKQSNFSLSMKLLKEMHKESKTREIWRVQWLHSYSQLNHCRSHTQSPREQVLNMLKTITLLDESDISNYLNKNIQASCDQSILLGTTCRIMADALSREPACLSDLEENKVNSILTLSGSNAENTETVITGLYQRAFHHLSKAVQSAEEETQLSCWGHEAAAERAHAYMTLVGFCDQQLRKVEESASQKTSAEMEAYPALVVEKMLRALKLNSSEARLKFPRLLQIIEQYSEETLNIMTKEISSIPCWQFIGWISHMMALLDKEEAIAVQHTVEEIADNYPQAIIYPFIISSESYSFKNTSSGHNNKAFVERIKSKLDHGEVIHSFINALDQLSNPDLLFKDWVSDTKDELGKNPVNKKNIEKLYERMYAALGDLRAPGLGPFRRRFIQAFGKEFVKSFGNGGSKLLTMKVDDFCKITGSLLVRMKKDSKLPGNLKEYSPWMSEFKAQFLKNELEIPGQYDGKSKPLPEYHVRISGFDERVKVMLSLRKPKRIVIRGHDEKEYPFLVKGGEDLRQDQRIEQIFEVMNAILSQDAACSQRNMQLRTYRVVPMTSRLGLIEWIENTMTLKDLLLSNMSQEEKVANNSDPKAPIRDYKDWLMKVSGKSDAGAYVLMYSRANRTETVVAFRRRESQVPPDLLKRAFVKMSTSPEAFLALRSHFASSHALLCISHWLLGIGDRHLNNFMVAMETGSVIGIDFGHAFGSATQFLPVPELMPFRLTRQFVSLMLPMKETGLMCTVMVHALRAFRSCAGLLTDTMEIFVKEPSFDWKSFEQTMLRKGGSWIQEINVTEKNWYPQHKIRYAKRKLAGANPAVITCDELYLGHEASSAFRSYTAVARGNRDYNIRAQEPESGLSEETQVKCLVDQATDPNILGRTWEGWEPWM
UniProt P31750: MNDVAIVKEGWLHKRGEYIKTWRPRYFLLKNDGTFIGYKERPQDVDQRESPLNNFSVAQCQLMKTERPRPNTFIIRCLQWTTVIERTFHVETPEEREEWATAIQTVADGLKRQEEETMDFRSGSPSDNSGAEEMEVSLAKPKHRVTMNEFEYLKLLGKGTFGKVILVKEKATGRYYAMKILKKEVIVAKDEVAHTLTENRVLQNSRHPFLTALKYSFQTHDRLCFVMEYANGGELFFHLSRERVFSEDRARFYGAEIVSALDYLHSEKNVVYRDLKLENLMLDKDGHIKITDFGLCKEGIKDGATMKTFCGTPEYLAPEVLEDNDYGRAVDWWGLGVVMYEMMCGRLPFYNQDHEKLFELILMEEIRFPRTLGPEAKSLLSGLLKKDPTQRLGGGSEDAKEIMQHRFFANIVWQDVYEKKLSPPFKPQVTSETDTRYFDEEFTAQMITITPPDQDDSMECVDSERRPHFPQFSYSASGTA
UniProt Q60823: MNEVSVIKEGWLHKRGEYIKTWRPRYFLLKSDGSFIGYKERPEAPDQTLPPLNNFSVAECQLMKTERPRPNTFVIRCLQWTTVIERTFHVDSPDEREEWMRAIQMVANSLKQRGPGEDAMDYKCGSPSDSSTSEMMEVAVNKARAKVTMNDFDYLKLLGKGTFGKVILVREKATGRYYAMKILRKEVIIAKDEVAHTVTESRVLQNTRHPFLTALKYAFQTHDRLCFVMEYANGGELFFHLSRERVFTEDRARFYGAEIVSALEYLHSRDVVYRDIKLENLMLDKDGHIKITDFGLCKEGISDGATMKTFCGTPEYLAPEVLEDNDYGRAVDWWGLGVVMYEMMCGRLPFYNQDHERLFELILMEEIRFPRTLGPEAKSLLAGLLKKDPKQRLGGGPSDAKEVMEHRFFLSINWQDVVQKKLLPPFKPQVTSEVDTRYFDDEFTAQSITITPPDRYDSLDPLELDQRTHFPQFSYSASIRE
UniProt P10085: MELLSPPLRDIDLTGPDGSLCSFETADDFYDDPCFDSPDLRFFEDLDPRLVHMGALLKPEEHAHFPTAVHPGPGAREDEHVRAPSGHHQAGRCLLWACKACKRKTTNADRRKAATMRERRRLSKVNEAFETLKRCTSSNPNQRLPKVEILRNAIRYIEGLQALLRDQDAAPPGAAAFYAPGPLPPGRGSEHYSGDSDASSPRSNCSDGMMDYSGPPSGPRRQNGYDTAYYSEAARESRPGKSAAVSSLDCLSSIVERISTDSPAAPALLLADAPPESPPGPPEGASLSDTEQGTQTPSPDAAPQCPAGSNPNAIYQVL

Row | binding [1] | binding [2] | Substance
1 | binds |  | Akt2 (from UniProt Q60823 1-481) (enzyme)
2 | binds | binds | MyoD (from UniProt P10085 1-318)
